PubChem BioAssay AID1224826 | NIAID – 2016
Screen: 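Genes that change LPS-induced Tnf promoter activity in mouse macrophages when knocked down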 (primary screen). Cell system: RAW264.7 G9 macrophages from mouse bearing reporters for p65 (GFP) and the Tnf promoter (mCherry). Reagent: siRNA pool against mouse genes, 100 nM. Timing: 16 h of LPS stimulation, after 2 days of siRNA transfection. Challenge: bacterial lipopolysaccharide (Salmonella minnesota R595), 10 ng/ml. Detection: 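Imaged Tnf reporter mCherry in nuclei, minus background, normalised per plate to the median and expressed as robust z-scores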. Scale: Tnf reporter robust z-score: higher = stronger Tnf promoter reporter signal after LPS; Tnf reporter intensity: higher = stronger Tnf promoter reporter signal. Active means: 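a well counts as active at a score of -1.3 or below (Tlr4 knock-down control median) or above 3 (raised signal); controls and wells holding fewer than 50 cells are excluded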. Meaning of the calls: active = Tnf reporter clearly lowered or raised; inactive = no clear change in Tnf reporter.
Here is a random part of about 17,000 reagents tested. About 1,110 of all reagents (6.6%) were called active. 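Active means lowered or raised reporter signal; replicate intensities are raw and not normalised per plate.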 Reagent sequences are not shown.

gene knocked down	Tnf reporter robust z-score	fewer than 50 cells in well	Tnf reporter intensity, replicate 1	Tnf reporter intensity, replicate 2	call
Meg3	1.55	enough cells in well	321	285	inactive
Or5d36	-1.02	enough cells in well	113	107	inactive
Ctps2	3.96	enough cells in well	493	529	active
Sulf2	-0.49	enough cells in well	215	194	inactive
Ppp1r37	0.13	enough cells in well	241	187	inactive
Vsir		fewer than 50 cells per well; well left out of calls	100	51.5	inactive
Ppp2r5d	-0.05	enough cells in well	230	199	inactive
Lpcat1	0.39	enough cells in well	157	193	inactive
Psmd14	2.25	enough cells in well	382	383	inactive
Gucy2f	-1.04	enough cells in well	130	100	inactive
Nrk	-1.17	enough cells in well	119	127	inactive
Ier3	-0.75	enough cells in well	177	141	inactive
Impg2	-0.47	enough cells in well	259	161	inactive
Rpl23	-0.37	enough cells in well	101	123	inactive
Or51b17	-0.86	enough cells in well	219	95.2	inactive
Igsf9	0.1	enough cells in well	206	107	inactive
Or3a4	-0.21	enough cells in well	156	120	inactive
Ctsl	0.04	enough cells in well	242	202	inactive
Mir9-2hg	-0.72	enough cells in well	90.3	115	inactive
Cdh2	-0.6	enough cells in well	171	190	inactive
Impdh2	-0.15	enough cells in well	200	162	inactive
Amigo2	-0.35	enough cells in well	187	159	inactive
Mtm1	0.48	enough cells in well	379	178	inactive
Or5k1	0.06	enough cells in well	188	121	inactive
Gm4836	-1.5	enough cells in well	53.1	60.2	active
Tmem171	-1.29	enough cells in well	108	190	inactive
St6galnac5	0.5	enough cells in well	126	109	inactive
Nscme3l	0.92	enough cells in well	278	266	inactive
Cavin2	-0.33	enough cells in well	222	213	inactive
Stard10	3.19	enough cells in well	253	165	active
Lilrb4a	0.67	enough cells in well	269	251	inactive
Ly6a	-0.28	enough cells in well	169	135	inactive
Zfp414	0.28	enough cells in well	308	75	inactive
Stmn4	2.61	enough cells in well	172	202	inactive
Prmt8	1.03	enough cells in well	270	185	inactive
Gstt1	-0.76	enough cells in well	220	149	inactive
Rps2	-0.03	enough cells in well	299	207	inactive
Cited4	0.06	enough cells in well	243	220	inactive
Sf3b4		fewer than 50 cells per well; well left out of calls	13.3	31.9	inactive
Map1s	0.97	enough cells in well	216	212	inactive
Cd200r1l	1.31	enough cells in well	302	233	inactive
Prkg2	1.72	enough cells in well	299	178	inactive
Il4	0.2	enough cells in well	238	173	inactive
Sele	-0.04	enough cells in well	315	179	inactive
Fbxo17	-0.37	enough cells in well	212	123	inactive
9530002B09Rik	-0.62	enough cells in well	184	106	inactive
Radil	-1.63	enough cells in well	95.5	63.7	active
Dyrk2	0.97	enough cells in well	319	160	inactive
Eepd1		fewer than 50 cells per well; well left out of calls	94.4	52.2	inactive
Hoxc13	-0.04	enough cells in well	258	164	inactive
Dnajb9	0.56	enough cells in well	259	113	inactive
Maml3	-0.62	enough cells in well	92.9	122	inactive
Nhlrc2	-0.74	enough cells in well	134	118	inactive
Klkb1	-1.08	enough cells in well	156	92.8	inactive
Neurog3	0.04	enough cells in well	121	168	inactive
Stk16	-0.45	enough cells in well	151	124	inactive
St6galnac4	1.81	enough cells in well	129	199	inactive
Dmrta2	0.28	enough cells in well	216	119	inactive
Svep1	-0.44	enough cells in well	119	102	inactive
L3mbtl3	2.97	enough cells in well	392	258	inactive
Pou6f1	-0.98	enough cells in well	148	143	inactive
Hoxb8	1.84	enough cells in well	424	249	inactive
Gmfg		fewer than 50 cells per well; well left out of calls	196	144	inactive
Plekhg2	0.55	enough cells in well	187	216	inactive
4931403M11Rik		fewer than 50 cells per well; well left out of calls	151	87.5	inactive
Defb8	0.46	enough cells in well	222	183	inactive
Irs4	0.75	enough cells in well	301	188	inactive
Prl2c2	0.4	enough cells in well	145	148	inactive
Fgf10	-1.09	enough cells in well	146	163	inactive
Pgam2	-0.64	enough cells in well	196	137	inactive
Dctn1	0.02	enough cells in well	201	266	inactive
Wasf3	0.44	enough cells in well	328	239	inactive
Or13a25	-1.94	enough cells in well	34.8	39.8	active
Ankrd33	-1.14	enough cells in well	105	97.2	inactive
Cmtm5	1.8	enough cells in well	263	286	inactive
